PubChem BioAssay AID1159592 – NIAID – 2016
Purpose: 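Toll-like receptor pathway genes that R848 needs to send NF-kB into the nucleus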. System: RAW264.7 macrophages from mouse bearing reporters for p65 (GFP) and the Tnf promoter (mCherry). Knock-down reagent: single siRNA against mouse genes. Duration: 48 to 72 hours after siRNA transfection. Conditions: R848 TLR ligand for 40 minutes before fixation; dose not given. Read-out: 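Nuclear over cytoplasmic GFP-p65 signal imaged 40 minutes after R848, plate-normalised by median and MAD, given as robust z versus negative controls, mean of replicates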. Direction: NF-kB translocation z-score: higher = more p65 moved into the nucleus than in negative-control wells. Rule for the call: 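Active when the replicate-mean z lies above 1.5 or below -1.5; the depositor also grades absolute z in steps of 1, 1.5, 2 and 2.5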. Calls: active = strong change, either direction; inactive = little change.
The deposit covers 756 reagents; this is an unselected part. In the full data, 147 (19%) were called active. 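Active covers both loss and gain of p65 entry; negative z means weaker NF-kB activation, positive means more nuclear p65.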 Reagents against one gene are numbered here. Not stated in the record: the amount of reagent.

no.	Gene	reagent no.	NF-kB translocation z-score, replicate mean	activity call
1	Cd180	1	-2.97	active
2	Cd180	2	0.588	inactive
3	Cd180	3	1.15	inactive
4	Cd180	4	1.64	active
5	Cd180	5	-2.04	active
6	Cd180	6	-0.246	inactive
7	Map3k7	1	-0.0187	inactive
8	Map3k7	2	-0.168	inactive
9	Map3k7	3	-1.36	inactive
10	Map3k7	4	0.448	inactive
11	Map3k7	5	-1.67	active
12	Map3k7	6	-1.35	inactive
13	Tnf	1	-0.00669	inactive
14	Tnf	2	0.0703	inactive
15	Tnf	3	1.43	inactive
16	Tnf	4	-0.338	inactive
17	Tnf	5	1.36	inactive
18	Tnf	6	-1.39	inactive
19	Ticam1	1	-2.1	active
20	Ticam1	2	0.313	inactive
21	Ticam1	3	-0.628	inactive
22	Ticam1	4	0.168	inactive
23	Ticam1	5	-0.271	inactive
24	Ticam1	6	-2.29	active
25	Ep300	1	-0.716	inactive
26	Ep300	2	-1.1	inactive
27	Ep300	3	-1.37	inactive
28	Ep300	4	-0.269	inactive
29	Ep300	5	-1.54	active
30	Ep300	6	-1.28	inactive
31	Tbk1	1	0.418	inactive
32	Tbk1	2	0.446	inactive
33	Tbk1	3	-0.765	inactive
34	Tbk1	4	0.611	inactive
35	Tbk1	5	-0.503	inactive
36	Tbk1	6	0.62	inactive
37	Map3k14	1	-0.251	inactive
38	Map3k14	2	0.315	inactive
39	Map3k14	3	-0.618	inactive
40	Map3k14	4	-0.788	inactive
41	Map3k14	5	-3.49	active
42	Map3k14	6	-1.47	inactive
43	Tlr8	1	0.649	inactive
44	Tlr8	2	0.711	inactive
45	Tlr8	3	-0.319	inactive
46	Tlr8	4	0.652	inactive
47	Tlr8	5	0.0993	inactive
48	Tlr8	6	-0.989	inactive
49	Tollip	1	0.661	inactive
50	Tollip	2	-0.818	inactive
51	Tollip	3	-2.9	active
52	Tollip	4	-0.623	inactive
53	Tollip	5	0.341	inactive
54	Tollip	6	-1.21	inactive
55	Irak3	1	-1.1	inactive
56	Irak3	2	-1.48	inactive
57	Irak3	3	-0.462	inactive
58	Irak3	4	-0.77	inactive
59	Irak3	5	-1.64	active
60	Irak3	6	-0.199	inactive
61	Atf7	1	-1.38	inactive
62	Atf7	2	-1.82	active
63	Atf7	3	-0.0757	inactive
64	Atf7	4	0.407	inactive
65	Atf7	5	-0.406	inactive
66	Atf7	6	-1.04	inactive
67	Ifnar1	1	-1.32	inactive
68	Ifnar1	2	0.637	inactive
69	Ifnar1	3	-1.47	inactive
70	Ifnar1	4	1.41	inactive
71	Ifnar1	5	-0.634	inactive
72	Ifnar1	6	-1.32	inactive
73	Atf2	1	-0.544	inactive
74	Atf2	2	-1.24	inactive
75	Atf2	3	-0.0444	inactive
76	Atf2	4	-0.486	inactive
77	Atf2	5	-0.566	inactive
78	Atf2	6	0.456	inactive
79	Mapk3	1	-1.43	inactive
80	Mapk3	2	0.845	inactive
81	Mapk3	3	0.0363	inactive
82	Mapk3	4	-0.528	inactive
83	Mapk3	5	-0.624	inactive
84	Mapk3	6	-0.0806	inactive

Ordered by “NF-kB translocation z-score, replicate mean” (descending): 13 of the entries above
Gene	reagent no.	NF-kB translocation z-score, replicate mean	activity call
Tnf	3	1.43	inactive
Tnf	5	1.36	inactive
Map3k7	4	0.448	inactive
Ticam1	2	0.313	inactive
Tnf	2	0.0703	inactive
Tnf	1	-0.00669	inactive
Map3k7	2	-0.168	inactive
Tnf	4	-0.338	inactive
Map3k7	6	-1.35	inactive
Map3k7	3	-1.36	inactive
Tnf	6	-1.39	inactive
Map3k7	5	-1.67	active
Ticam1	1	-2.1	active

The list goes on.
no.	Gene	reagent no.	NF-kB translocation z-score, replicate mean	activity call
85	Pik3r5	1	0.317	inactive
86	Pik3r5	2	-0.0164	inactive
87	Pik3r5	3	-1.36	inactive
88	Pik3r5	4	-1.91	active
89	Pik3r5	5	-2.54	active
90	Pik3r5	6	-0.214	inactive
91	Ikbkg	1	-2.22	active
92	Ikbkg	2	-2.06	active
93	Ikbkg	3	-0.204	inactive
94	Ikbkg	4	-2.64	active
95	Ikbkg	5	-2.44	active
96	Ikbkg	6	-0.00725	inactive
97	Stat1	1	0.543	inactive
98	Stat1	2	1.19	inactive
99	Stat1	3	0.262	inactive
100	Stat1	4	0.564	inactive
101	Stat1	5	0.399	inactive
102	Stat1	6	-1.11	inactive
103	Akt1	1	-1.4	inactive
104	Akt1	2	-2.69	active
105	Akt1	3	0.741	inactive
106	Akt1	4	-0.36	inactive
107	Akt1	5	-1.36	inactive
108	Akt1	6	-1.22	inactive
109	Mapk1	1	-0.772	inactive
110	Mapk1	2	-2.49	active
111	Mapk1	3	-1.3	inactive
112	Mapk1	4	0.00527	inactive
113	Mapk1	5	-0.485	inactive
114	Mapk1	6	-2.44	active
115	Il12b	1	-0.741	inactive
116	Il12b	2	2.05	active
117	Il12b	3	-0.088	inactive
118	Il12b	4	-0.231	inactive
119	Il12b	5	-1.2	inactive
120	Il12b	6	-0.123	inactive
121	Tank	1	-0.553	inactive
122	Tank	2	4.18	active
123	Tank	3	0.828	inactive
124	Tank	4	1.54	active
125	Tank	5	2.84	active
126	Tank	6	0.992	inactive
127	Fos	1	-0.606	inactive
128	Fos	2	-0.859	inactive
129	Fos	3	-0.817	inactive
130	Fos	4	-0.379	inactive
131	Fos	5	-0.622	inactive
132	Fos	6	-0.352	inactive
133	Rac1	1	2.05	active
134	Rac1	2	-0.143	inactive
135	Rac1	3	-2.7	active
136	Rac1	4	-0.197	inactive
137	Rac1	5	-0.513	inactive
138	Rac1	6	-0.141	inactive
139	Itgam	1	-0.389	inactive
140	Itgam	2	-0.289	inactive
141	Itgam	3	0.0971	inactive
142	Itgam	4	-0.286	inactive
143	Itgam	5	-0.209	inactive
144	Itgam	6	-1.52	active
